Measured values taken from patent publication US20210277118A1 (Daiichi Sankyo, published 2021).
These are yes or no findings as the source states them, for the method shown. Some entries that bind do so weakly or less than the wild type. Tags and fused reporters may be left off the sequences shown.

The chains behind the UniProt entries cited, without tags or fusion partners. Residues count along the entry.
UniProt P07766, residues 23-207: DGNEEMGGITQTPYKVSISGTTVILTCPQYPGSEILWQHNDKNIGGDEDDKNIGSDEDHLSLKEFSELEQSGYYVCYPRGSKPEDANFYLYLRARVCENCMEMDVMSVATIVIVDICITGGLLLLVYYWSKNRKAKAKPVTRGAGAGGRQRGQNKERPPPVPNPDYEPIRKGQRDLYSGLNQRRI
UniProt Q95LI5, residues 22-198: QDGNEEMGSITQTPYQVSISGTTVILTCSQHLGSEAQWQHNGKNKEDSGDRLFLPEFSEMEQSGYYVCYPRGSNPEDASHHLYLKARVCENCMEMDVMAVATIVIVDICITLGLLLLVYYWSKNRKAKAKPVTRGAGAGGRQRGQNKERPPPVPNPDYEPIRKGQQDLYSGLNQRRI

What was measured:
[1] = target: human CD3 expressed on T cells (Jurkat cells, human pan T cells/PBMC) (human) (UniProt P07766); assay: cell ELISA on CD3+ Jurkat cells, HRP anti-human IgG Fc secondary, OD 450 nm
[2] = target: cynomolgus monkey CD3 expressed on T cells (cynomolgus pan T cells/PBMC, HSC-F cell line) (cynomolgus monkey) (UniProt Q95LI5); assay: flow cytometry on cynomolgus T cells
[3] = target: human CD3 expressed on T cells (Jurkat cells, human pan T cells/PBMC) (human) (UniProt P07766); assay: cell ELISA on CD3+ Jurkat cells
[4] = target: human CD3 expressed on T cells (Jurkat cells, human pan T cells/PBMC) (human) (UniProt P07766); assay: flow cytometry on human T cells
[5] = target: cynomolgus monkey CD3 expressed on T cells (cynomolgus pan T cells/PBMC, HSC-F cell line) (cynomolgus monkey) (UniProt Q95LI5); assay: flow cytometry on cynomolgus pan T cells gated CD4+, detection with anti-IgG-Fc, geo MFI
[6] = target: human CD3 expressed on T cells (Jurkat cells, human pan T cells/PBMC) (human) (UniProt P07766); assay: cell ELISA on CD3+ Jurkat cells, HRP anti-human IgG Fc secondary, A 450 nm
[7] = target: human CD3 expressed on T cells (Jurkat cells, human pan T cells/PBMC) (human) (UniProt P07766); assay: flow cytometry on human T cells gated CD4+, detection with anti-IgG-Fc, geo MFI

Measured: binding

B1: variant 19363, monovalent anti-CD3 scFv-heterodimeric Fc (VL hC3E-1_6L3a (D52N), VH hC3E-1) (Fc fusion, not shown: a dimerising Fc or GST; small tags and cut ends)
scFv: EVQLVESGGGLVQPGGSLRLSCAASGVTFNYYGMSWIRQAPGKGLEWVASITNSGGRIYYPDSVKGRFTISRENTQKTLYLQMNSLRAEDTAVYYCTLDGRDGWVAYWGQGTLVTVSSGGGGSGGGGSGGGGSQFVLTQPPSASGTPGQRVTISCKRNTGNIGSNYVNWYQQLPGTAPKTIIYRNDKRPDGVPDRFSGSIDSSSNSASLAISGLQSEDEADYYCQSYSSGFIFGGGTKLTVL
notes: scFv order VH-(GGGGS)3-VL on Fc chain A; chain B is Fc only; also called v19363
binds: [1] | [2] | [3] | [4]

B2: variant 19362, monovalent anti-CD3 scFv-heterodimeric Fc (VL hC3E-1_6L3b (D52N), VH hC3E-1) (Fc fusion, not shown: a dimerising Fc or GST; small tags and cut ends)
scFv: EVQLVESGGGLVQPGGSLRLSCAASGVTFNYYGMSWIRQAPGKGLEWVASITNSGGRIYYPDSVKGRFTISRENTQKTLYLQMNSLRAEDTAVYYCTLDGRDGWVAYWGQGTLVTVSSGGGGSGGGGSGGGGSNFMLTQPHSVSESPGKTVTISCKRNTGNIGSNYVNWYQQLPGTAPKTIIYRNDKRPDGVPDRFSGSIDSSSNSASLAISGLQSEDEADYYCQSYSSGFIFGGGTKLTVL
notes: scFv order VH-(GGGGS)3-VL on Fc chain A; chain B is Fc only; also called v19362
not listed: [6] | [7]
binds: all other assays above

B3: variant 19370, monovalent anti-CD3 scFv-heterodimeric Fc (VL hC3E-1_1L1d, VH hC3E-1) (Fc fusion, not shown: a dimerising Fc or GST; small tags and cut ends)
scFv: EVQLVESGGGLVQPGGSLRLSCAASGVTFNYYGMSWIRQAPGKGLEWVASITNSGGRIYYPDSVKGRFTISRENTQKTLYLQMNSLRAEDTAVYYCTLDGRDGWVAYWGQGTLVTVSSGGGGSGGGGSGGGGSQVVLTQPPSASGTPGQRVTISCKRNTGNIGSNYVNWYQQLPGTAPKLLIYRDDKRPDGVPDRFSGSKSGTSASLAISGLQSEDEADYYCQSYSSGFIFGGGTKLTVL
notes: scFv order VH-(GGGGS)3-VL on Fc chain A; chain B is Fc only; also called v19370
not listed: [6] | [7]
binds: all other assays above

B4: variant 18343, monovalent anti-CD3 scFv-heterodimeric Fc (VL hC3E-1-1L1, VH hC3E-1) (Fc fusion, not shown: a dimerising Fc or GST; small tags and cut ends)
scFv: EVQLVESGGGLVQPGGSLRLSCAASGVTFNYYGMSWIRQAPGKGLEWVASITNSGGRIYYPDSVKGRFTISRENTQKTLYLQMNSLRAEDTAVYYCTLDGRDGWVAYWGQGTLVTVSSGGGGSGGGGSGGGGSQSVLTQPPSASGTPGQRVTISCKRNTGNIGSNYVNWYQQLPGTAPKLLIYRDDKRPDGVPDRFSGSKSGTSASLAISGLQSEDEADYYCQSYSSGFIFGGGTKLTVL
notes: scFv order VH-(GGGGS)3-VL on Fc chain A; chain B is Fc only; also called v18343
binds: [3]

B5: variant 19373, monovalent anti-CD3 scFv-heterodimeric Fc (VL hC3E-1_1L1a, VH hC3E-1) (Fc fusion)
scFv: EVQLVESGGGLVQPGGSLRLSCAASGVTFNYYGMSWIRQAPGKGLEWVASITNSGGRIYYPDSVKGRFTISRENTQKTLYLQMNSLRAEDTAVYYCTLDGRDGWVAYWGQGTLVTVSSGGGGSGGGGSGGGGSQFVLTQPPSASGTPGQRVTISCKRNTGNIGSNYVNWYQQLPGTAPKLLIYRDDKRPDGVPDRFSGSKSGTSASLAISGLQSEDEADYYCQSYSSGFIFGGGTKLTVL
notes: scFv order VH-(GGGGS)3-VL on Fc chain A; chain B is Fc only; also called v19373; not shown: The Fc-only chain B is not tied by number to this variant
binds: [1] | [3]

B6: variant 21829, monovalent anti-CD3 scFv-heterodimeric Fc (VL hC3E-1_1L1d, VH hC3E-1(N53R)) (Fc fusion)
scFv: EVQLVESGGGLVQPGGSLRLSCAASGVTFNYYGMSWIRQAPGKGLEWVASITRSGGRIYYPDSVKGRFTISRENTQKTLYLQMNSLRAEDTAVYYCTLDGRDGWVAYWGQGTLVTVSSGGGGSGGGGSGGGGSQVVLTQPPSASGTPGQRVTISCKRNTGNIGSNYVNWYQQLPGTAPKLLIYRDDKRPDGVPDRFSGSKSGTSASLAISGLQSEDEADYYCQSYSSGFIFGGGTKLTVL
notes: scFv order VH-(GGGGS)3-VL on Fc chain A; chain B is Fc only; also called v21829; not shown: Fc-only chain B is also left out
not listed: [1]
binds: all other assays above

B7: variant 21827, monovalent anti-CD3 scFv-heterodimeric Fc (VL hC3E-1_1L1d, VH hC3E-1(N53S_D102E)) (Fc fusion)
scFv: EVQLVESGGGLVQPGGSLRLSCAASGVTFNYYGMSWIRQAPGKGLEWVASITSSGGRIYYPDSVKGRFTISRENTQKTLYLQMNSLRAEDTAVYYCTLDGREGWVAYWGQGTLVTVSSGGGGSGGGGSGGGGSQVVLTQPPSASGTPGQRVTISCKRNTGNIGSNYVNWYQQLPGTAPKLLIYRDDKRPDGVPDRFSGSKSGTSASLAISGLQSEDEADYYCQSYSSGFIFGGGTKLTVL
notes: scFv order VH-(GGGGS)3-VL on Fc chain A; chain B is Fc only; also called v21827; not shown: Fc-only chain B is also left out
binds: [2]

B8: variant 19371, monovalent anti-CD3 scFv-heterodimeric Fc (VL hC3E-1_1L1c, VH hC3E-1) (Fc fusion)
scFv: EVQLVESGGGLVQPGGSLRLSCAASGVTFNYYGMSWIRQAPGKGLEWVASITNSGGRIYYPDSVKGRFTISRENTQKTLYLQMNSLRAEDTAVYYCTLDGRDGWVAYWGQGTLVTVSSGGGGSGGGGSGGGGSQIVLTQPPSASGTPGQRVTISCKRNTGNIGSNYVNWYQQLPGTAPKLLIYRDDKRPDGVPDRFSGSKSGTSASLAISGLQSEDEADYYCQSYSSGFIFGGGTKLTVL
notes: scFv order VH-(GGGGS)3-VL on Fc chain A; chain B is Fc only; also called v19371; not shown: The Fc-only chain B is not tied by number to this variant
binds: [1] | [2] | [3] | [4]

B9: variant 21825, monovalent anti-CD3 scFv-heterodimeric Fc (VL hC3E-1_1L1d, VH hC3E-1(N53R_D102E)) (Fc fusion)
scFv: EVQLVESGGGLVQPGGSLRLSCAASGVTFNYYGMSWIRQAPGKGLEWVASITRSGGRIYYPDSVKGRFTISRENTQKTLYLQMNSLRAEDTAVYYCTLDGREGWVAYWGQGTLVTVSSGGGGSGGGGSGGGGSQVVLTQPPSASGTPGQRVTISCKRNTGNIGSNYVNWYQQLPGTAPKLLIYRDDKRPDGVPDRFSGSKSGTSASLAISGLQSEDEADYYCQSYSSGFIFGGGTKLTVL
notes: scFv order VH-(GGGGS)3-VL on Fc chain A; chain B is Fc only; also called v21825; not shown: Fc-only chain B is also left out
binds: [2]

B10: variant 21831, monovalent anti-CD3 scFv-heterodimeric Fc (VL hC3E-1_1L1d, VH hC3E-1(N53S)) (Fc fusion)
scFv: EVQLVESGGGLVQPGGSLRLSCAASGVTFNYYGMSWIRQAPGKGLEWVASITSSGGRIYYPDSVKGRFTISRENTQKTLYLQMNSLRAEDTAVYYCTLDGRDGWVAYWGQGTLVTVSSGGGGSGGGGSGGGGSQVVLTQPPSASGTPGQRVTISCKRNTGNIGSNYVNWYQQLPGTAPKLLIYRDDKRPDGVPDRFSGSKSGTSASLAISGLQSEDEADYYCQSYSSGFIFGGGTKLTVL
notes: scFv order VH-(GGGGS)3-VL on Fc chain A; chain B is Fc only; also called v21831; not shown: Fc-only chain B is also left out
not listed: [1] | [5]
binds: all other assays above

B11: variant 19372, monovalent anti-CD3 scFv-heterodimeric Fc (VL hC3E-1_1L1b, VH hC3E-1) (Fc fusion)
scFv: EVQLVESGGGLVQPGGSLRLSCAASGVTFNYYGMSWIRQAPGKGLEWVASITNSGGRIYYPDSVKGRFTISRENTQKTLYLQMNSLRAEDTAVYYCTLDGRDGWVAYWGQGTLVTVSSGGGGSGGGGSGGGGSQLVLTQPPSASGTPGQRVTISCKRNTGNIGSNYVNWYQQLPGTAPKLLIYRDDKRPDGVPDRFSGSKSGTSASLAISGLQSEDEADYYCQSYSSGFIFGGGTKLTVL
notes: scFv order VH-(GGGGS)3-VL on Fc chain A; chain B is Fc only; also called v19372; not shown: The Fc-only chain B is not tied by number to this variant
binds: [1] | [2] | [3] | [4]

B12: variant 18346, monovalent anti-CD3 scFv-heterodimeric Fc (VL hC3E-1 wildtype, VH hC3E-1 wildtype) (Fc fusion)
scFv: EVQLVESGGGLVQPGGSLRLSCAASGVTFNYYGMSWIRQAPGKGLEWVASITNSGGRIYYPDSVKGRFTISRENTQKTLYLQMNSLRAEDTAVYYCTLDGRDGWVAYWGQGTLVTVSSGGGGSGGGGSGGGGSNFMLTQPHSVSESPGKTVTISCKRNTGNIGSNYVNWYQQHEGSSPTTIIYRDDKRPDGVSDRFSGSIDRSSKSASLTISNLKTEDEADYFCQSYSSGFIFGGGTKLTVL
notes: scFv order VH-(GGGGS)3-VL on Fc chain A; chain B is Fc only; also called v18346; parental construct v18346; not shown: Fc-only chain B is also left out
binds: [5] | [7] | [3]

B13: variant 21826, monovalent anti-CD3 scFv-heterodimeric Fc (VL hC3E-1 (D52N), VH hC3E-1(N53R_D102E)) (Fc fusion)
scFv: EVQLVESGGGLVQPGGSLRLSCAASGVTFNYYGMSWIRQAPGKGLEWVASITRSGGRIYYPDSVKGRFTISRENTQKTLYLQMNSLRAEDTAVYYCTLDGREGWVAYWGQGTLVTVSSGGGGSGGGGSGGGGSNFMLTQPHSVSESPGKTVTISCKRNTGNIGSNYVNWYQQHEGSSPTTIIYRNDKRPDGVSDRFSGSIDRSSKSASLTISNLKTEDEADYFCQSYSSGFIFGGGTKLTVL
notes: scFv order VH-(GGGGS)3-VL on Fc chain A; chain B is Fc only; also called v21826; not shown: Fc-only chain B is also left out
binds: [6] | [2] | [4]

B14: variant 18596, monovalent anti-CD3 scFv-heterodimeric Fc (VL hC3E-1, VH hC3E-1a D102E) (Fc fusion, not shown: a dimerising Fc or GST; small tags and cut ends)
scFv: EVQLVESGGGLVQPGGSLRLSCAASGVTFNYYGMSWIRQAPGKGLEWVASITNSGGRIYYPDSVKGRFTISRENTQKTLYLQMNSLRAEDTAVYYCTLDGREGWVAYWGQGTLVTVSSGGGGSGGGGSGGGGSNFMLTQPHSVSESPGKTVTISCKRNTGNIGSNYVNWYQQHEGSSPTTIIYRDDKRPDGVSDRFSGSIDRSSKSASLTISNLKTEDEADYFCQSYSSGFIFGGGTKLTVL
notes: scFv order VH-(GGGGS)3-VL on Fc chain A; chain B is Fc only; also called v18596
binds: [2] | [3] | [4]

B15: variant 21828, monovalent anti-CD3 scFv-heterodimeric Fc (VL hC3E-1 (D52N), VH hC3E-1(N53S_D102E)) (Fc fusion)
scFv: EVQLVESGGGLVQPGGSLRLSCAASGVTFNYYGMSWIRQAPGKGLEWVASITSSGGRIYYPDSVKGRFTISRENTQKTLYLQMNSLRAEDTAVYYCTLDGREGWVAYWGQGTLVTVSSGGGGSGGGGSGGGGSNFMLTQPHSVSESPGKTVTISCKRNTGNIGSNYVNWYQQHEGSSPTTIIYRNDKRPDGVSDRFSGSIDRSSKSASLTISNLKTEDEADYFCQSYSSGFIFGGGTKLTVL
notes: scFv order VH-(GGGGS)3-VL on Fc chain A; chain B is Fc only; also called v21828; not shown: Fc-only chain B is also left out
binds: [2]
